Library screening results

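Viability assay of Plasmodium falciparum sporozoites; the read-out is not stated. The concentration is filed as 10 mM, unlikely as a test dose, so the dose is not known. The record gives no direction; compounds that gave an IC50 in retests scored well above the rest, so higher reads as lower viability. Strong results were mostly tested again. Size under these conditions: about 34,000 compounds, about 280 of them at 50% or above in at least one test.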

Results are given as percent effect. The controls that fix the scale are not given in the record; negative values are as filed. The compounds are a random part of those screened. Two or more numbers in one place are separate tests of the same structure; such repeats can differ widely.

{"structure": "CN(c1cccnc1N1CCCC1)S(=O)(=O)c1cccnc1", "Percent Effect": -13.43}
{"structure": "Cc1cc2n(n1)CC(CNC1CCN(c3ccc(F)cc3)CC1)CN2", "stereo": "stereo not given", "Percent Effect": -5.767}
{"structure": "Cc1noc(CN2CCCC(Cn3nc(C)nc3C)C2)n1", "stereo": "stereo not given", "Percent Effect": 11.38}
{"structure": "CC(C(=O)Nc1ccc(N2CCOCC2)nc1)n1cncn1", "stereo": "stereo not given", "Percent Effect": 7.741}
{"structure": "O=C(NCCC(=O)N1CCCc2ccccc21)c1cc(F)cc(F)c1", "Percent Effect": -11.73}
{"structure": "CCn1cncc1C1CC(=O)Nc2c1c(C)nn2C", "stereo": "stereo not given", "Percent Effect": "-0.6249 & 3.526"}
{"structure": "O=C(NCc1ccccn1)N(Cc1ccc(F)cc1F)C1CC1", "Percent Effect": -2.056}
{"structure": "CCOc1ncccc1CNC(=O)N1CCC(n2cncn2)CC1", "Percent Effect": 12.22}
{"structure": "[H][C@]12C[C@@H](Cn3cncn3)N(C(C)=O)[C@@]1([H])CCN(c1ccc(C)nn1)C2", "Percent Effect": 8.288}
{"structure": "O=C(O)CCCNC(=O)N1CCc2c([nH]c3ccc(Cl)cc23)C1", "Percent Effect": "31.15 & 28.91"}
{"structure": "Cc1ccccc1CS(=O)(=O)CC(=O)NCc1ccccc1F", "Percent Effect": -1.015}
{"structure": "CCc1nc(CN2CCCN(C(=O)CC(F)(F)F)CC2)cs1", "Percent Effect": 8.713}
{"structure": "Cc1cccc(Cn2ccc(NS(C)(=O)=O)n2)c1", "Percent Effect": -12.21}
{"structure": "Cc1cccc(N2CCc3ncnc(C4CC4)c3CC2)n1.O=C(O)C(F)(F)F", "Percent Effect": -1.954}
{"structure": "CCOc1ncccc1NC(=O)NC1CCN(C(C)=O)CC1", "Percent Effect": -7.833}
{"structure": "Nc1cc(-c2cncnc2C2CCN(C(=O)c3ccccc3)C2)ccn1", "stereo": "stereo not given", "Percent Effect": -15.09}
{"structure": "Cc1nc(C)c(C(=O)N2CCCN(Cc3cnn(C)c3)CC2)s1", "Percent Effect": 0}
{"structure": "COc1cccnc1-c1ccc(F)c2c1OC(CN)C2", "stereo": "stereo not given", "Percent Effect": 8.772}
{"structure": "Cc1cc(CCC2CN(Cc3ccccc3C(=O)O)CCO2)ncn1", "stereo": "stereo not given", "Percent Effect": 7.709}
{"structure": "Cc1noc(CNc2ccc(C(=O)N3CCCC(C)C3)cc2C)n1", "stereo": "stereo not given", "Percent Effect": "12 & 12.75 & 4.849"}
{"structure": "Cc1ccc(OCC(O)CN2CCc3c(ncn3C3CC3)C2)cc1", "stereo": "stereo not given", "Percent Effect": 6.77}
{"structure": "Cc1nc(C2CCCN2C(=O)c2ccccc2)ncc1C(N)=O", "stereo": "stereo not given", "Percent Effect": -3.576}
{"structure": "CN(CCN1CCOCC1)C(=O)CCCOCCc1ccccc1", "Percent Effect": -1.384}
{"structure": "COc1ccc(F)cc1C(C)NC(=O)Cn1ccc(=O)n(C)c1=O", "stereo": "stereo not given", "Percent Effect": -2.844}
{"structure": "O=C(NC1CCN(c2ncccc2F)C1)c1cccc(-n2ccnc2)c1", "stereo": "stereo not given", "Percent Effect": 0.9126}
{"structure": "Cn1nc2c(cc1=O)CN(CCN1CCCC1=O)CC2", "Percent Effect": -5.023}
{"structure": "Cc1cncc(NC(=O)c2ccc(CN3CC[C@H](O)C3)cc2)c1", "Percent Effect": "88.45 & 79.14"}
{"structure": "Cn1cccc1CN1CCc2c(nc(-c3ccccn3)[nH]c2=O)C1", "Percent Effect": 8.047}
{"structure": "Cc1ncc(CN2CCOC(c3ccc(-c4cnn(C)c4)cn3)C2)s1", "stereo": "stereo not given", "Percent Effect": 15.89}
{"structure": "[H][C@@]12COCC[C@]1([H])C[C@H](N(CC(=O)O)C(=O)c1ccccc1)C2", "Percent Effect": 11.39}
{"structure": "Cc1[nH]c2c(F)cccc2c1CC(=O)NCCCc1csc(N)n1", "Percent Effect": -12.72}
{"structure": "COC(C(=O)N1CCN(c2cccc(Cl)c2)C(=O)C1)c1ccccc1", "stereo": "stereo not given", "Percent Effect": 0.5882}
{"structure": "[H][C@@]12CCN(C(=O)c3cccn3C)C[C@@]1([H])O[C@H](c1ccncn1)C2", "Percent Effect": -3.657}
{"structure": "CCCc1nc(NC2(COC)CCCC2)c2cnn(C)c2n1", "Percent Effect": 3.76}
{"structure": "O=C(O)C(F)(F)F.O=C(O)C(F)(F)F.O=C(O)C(F)(F)F.[H][C@@]12C[C@@H](Oc3cncnc3)CN1CCN(Cc1ccncc1)C2", "Percent Effect": -2.102}
{"structure": "O=C1CC(c2ccncc2)C2(CCN(Cc3cccnc3)CC2)N1", "stereo": "stereo not given", "Percent Effect": -8.759}
{"structure": "Cc1ncc(CN)c(-c2cn(C)c3ccccc23)n1", "Percent Effect": 3.25}
{"structure": "Nc1nccc(C2CCN(c3cnccn3)C2)n1", "stereo": "stereo not given", "Percent Effect": 5.2}
{"structure": "c1ncn(CC2CN(Cc3ccc4c(c3)OCCO4)CCO2)n1", "stereo": "stereo not given", "Percent Effect": 12.59}
{"structure": "O=C(NCc1ccco1)c1cccc(CN2CCCC2CO)c1", "stereo": "stereo not given", "Percent Effect": -10.29}
{"structure": "c1ccc(C2Cn3ccnc3CN2Cc2ncc[nH]2)cc1", "stereo": "stereo not given", "Percent Effect": 0.1283}
{"structure": "CC(C)OCc1cccc(CNc2cnn(C)c(=O)c2Cl)c1", "Percent Effect": 14.72}
{"structure": "CN(Cc1cnccn1)S(=O)(=O)N1CCCC1c1ccco1", "stereo": "stereo not given", "Percent Effect": -3.307}
{"structure": "O=C(NCC1CC1)c1n[nH]c2c1CNCC2.O=C(O)C(F)(F)F.O=C(O)C(F)(F)F", "Percent Effect": 7.015}
{"structure": "COc1cc(CNCc2ccc(C(C)O)cc2)cc2c1OCO2", "stereo": "stereo not given", "Percent Effect": 13.12}
{"structure": "CC(C)(C)CC(=O)N1CSCC1C(=O)NC1=NCCS1", "stereo": "stereo not given", "Percent Effect": -6.548}
{"structure": "CC(C)c1nccn1C1CCCN(C(=O)CCNS(C)(=O)=O)C1", "stereo": "stereo not given", "Percent Effect": 1.885}
{"structure": "CCOc1ccc(-c2ccnc(CC)n2)cc1C(=O)O", "Percent Effect": -3.176}
{"structure": "CNc1cncc(C2CCN(C(=O)c3cnco3)CC2)n1", "Percent Effect": 3.868}
{"structure": "C[C@@H](N)C(=O)N1CC2(CCNCC2)c2cc(Cl)ccc21.Cl.Cl", "Percent Effect": -1.805}
{"structure": "Cn1ccc(C(=O)N2CCOC(c3ccccn3)C2)cc1=O", "stereo": "stereo not given", "Percent Effect": "-3.4 & 15.82 & -17.23"}
{"structure": "CC1CCc2nn(CCNC(=O)c3ccco3)c(=O)cc2C1", "stereo": "stereo not given", "Percent Effect": "41.65 & 60.7 & -9.658"}
{"structure": "O=C(c1cc(C2CC2)[nH]n1)N1CCN(Cc2ccncc2)CC1", "Percent Effect": -549.9}
{"structure": "COc1cccc(C(O)Cn2ncc3ncccc3c2=O)c1", "stereo": "stereo not given", "Percent Effect": -8.923}
{"structure": "CN1CCN(Cc2cscn2)CC(C(=O)N(C)C)C1", "stereo": "stereo not given", "Percent Effect": -19.03}
{"structure": "CCn1c(CC2CCN(S(=O)(=O)c3cccc(C)c3)CC2)nn(C)c1=O", "Percent Effect": 1.692}
{"structure": "Cc1cc2n(n1)CC(CNC1CCN(Cc3ccccc3C)CC1)CN2", "stereo": "stereo not given", "Percent Effect": -4.383}
{"structure": "CCN(CCNC(=O)c1ccccc1Br)C1CC1", "Percent Effect": -14.32}
{"structure": "COc1ccc(CC(=O)N2CCCC2Cn2cc(C)cn2)c(OC)c1", "stereo": "stereo not given", "Percent Effect": "60.41 & 57.93 & 5.748"}

For reference, 5 entries once more:

structure,Percent Effect
O=C(NCCC(=O)N1CCCc2ccccc21)c1cc(F)cc(F)c1,-11.73
COc1ccc(CC(=O)N2CCCC2Cn2cc(C)cn2)c(OC)c1 (stereo not given),60.41 & 57.93 & 5.748
C[C@@H](N)C(=O)N1CC2(CCNCC2)c2cc(Cl)ccc21.Cl.Cl,-1.805
O=C(NCC1CC1)c1n[nH]c2c1CNCC2.O=C(O)C(F)(F)F.O=C(O)C(F)(F)F,7.015
Cc1ncc(CN2CCOC(c3ccc(-c4cnn(C)c4)cn3)C2)s1 (stereo not given),15.89

Source: ChEMBL document CHEMBL3988442, “University of Dundee, Small-Polar-MMV Screening Library” (2021).